Earlier results on one molecule are cited in patent US11506670B2, “Method of genome-wide direct identification of electrophile-sensing targets” (Cornell University, priority 2018, dated 2022).

The structures appear in SMILES notation. Read-outs that look alike come from different tables or passages of the source.

The test system of this series is HaloTag. The settings on record: cited from earlier work.

Turning to `CCCCCCCCCCCCC/C=C/C=O` [2-HD, 2-trans-hexadecenal], the “liberation of LDE after photo-uncaging” value (in the presence of 1% SDS) is given as “efficient liberation” and the “liberation of LDE after photo-uncaging” value (without SDS) is “no liberation was observed”.
